# PubChem BioAssay AID504791 – Drosophila RNAi Screening Center | 2011
# Aim: 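Genes whose knock-down strengthens or weakens small-RNA reporter silencing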 (primary screen)
# Cell system: Drosophila S2-derived reporter cells
# Reagent: long dsRNA against Drosophila genes, about 150-250 ng dsRNA per well (siRNA assay); about 80-120 ng (miRNA assay)
# Duration: about 5 days (siRNA assay); about 4 days (miRNA assay)
# Challenge: copper sulfate induction of reporters: 25 µM (siRNA assay); 200 mM stated (miRNA assay), 1-2 days before reading
# Measurement: 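Dual luciferase assay: Renilla to firefly signal ratio in each well, scaled to the mean ratio of its plate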
# Active means: 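a well was a first-pass pick when its plate-scaled ratio rose above 1.5 (siRNA assay) or 1.6 (miRNA assay), or dropped below 0.6; a gene counted only if two separate dsRNAs agreed on retest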
# The deposit covers about 23,000 reagents; this is an unselected part of those that have a named target and a result. In the full data, 199 (0.86%) were called active. 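Plate-scaled ratios behind the calls are not deposited; printed light signals are raw; many rows marked increased or decreased are still called inactive.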 Entries without a mark were called inactive. A plus sign joins genes that one reagent is predicted to hit. Reagent sequences are not shown. The record does not give: the direction of the score.
gene,dsRNA,stable siRNA reporter change,miRNA reporter change,"stable assay Renilla, run 1 (luminescence)","stable assay firefly, run 1 (luminescence)"
disco,DRSC20323,,,6147,4.60e5
CG31251,DRSC16247,,,8047,5.74e5
CG32219,DRSC09641,,,5883,4.40e5
Gr98c,DRSC22212,,,9110,6.54e5
Sec10,DRSC17053,reporter ratio raised past the hit cutoff,,8434,2.18e5
Ctl2,DRSC14423,,,6895,5.25e5
CG10927,DRSC06014,,,8399,2.77e5
CG12885,DRSC14572,,,6807,5.04e5
Cec2,DRSC21885,,,9331,5.60e5
jdp,DRSC16975,,,7755,4.84e5
Taf12L,DRSC00467,,,8771,6.47e5
Nrk,DRSC07480,,,6064,3.74e5
CG5254,DRSC18611,reporter ratio raised past the hit cutoff,,8754,3.28e5
CG31457,DRSC22935,,,3888,3.32e5
CG14708,DRSC14930,,,6894,3.53e5
dpr5,DRSC15766,,,7192,3.95e5
AttA,DRSC05926,,,8807,6.45e5
SIFaR,DRSC13467,,,4434,4.12e5
SIFaR,DRSC14266,,,6927,3.72e5
CG6216,DRSC10606,,,5522,2.88e5
CG13564,DRSC04201,,,6387,4.31e5
CG15412,DRSC00427,,,7943,4.63e5
CG17328,DRSC01927,,,5343,4.00e5
CG17328,DRSC22448,reporter ratio raised past the hit cutoff,,1619,70415
ImpL2,DRSC08666,,,7922,3.97e5
CG14143,DRSC10146,,,5902,3.24e5
CG9410 + CG15908,DRSC04976,,,7779,4.20e5
CG9410 + CG15908,DRSC05001,,,5524,3.53e5

Entries above whose gene name begins with D or d (2):
gene,dsRNA,stable siRNA reporter change,miRNA reporter change,"stable assay Renilla, run 1 (luminescence)","stable assay firefly, run 1 (luminescence)"
disco,DRSC20323,,,6147,4.60e5
dpr5,DRSC15766,,,7192,3.95e5

Next records follow.
gene,dsRNA,stable siRNA reporter change,miRNA reporter change,"stable assay Renilla, run 1 (luminescence)","stable assay firefly, run 1 (luminescence)"
CG11777,DRSC06081,,,6884,4.11e5
Srp72,DRSC15800,,,10290,4.42e5
CG15169,DRSC02470,,,6435,4.03e5
Cpr56F,DRSC07326,,,7211,3.12e5
Rlb1,DRSC16826,,,6451,3.90e5
Ddx56,DRSC20567,,,5555,4.50e5
CG1236,DRSC12203,,,5968,3.98e5
Prp19,DRSC07434,,,5387,2.34e5
Prp19,DRSC23905,,reporter ratio lowered past the hit cutoff,,
INPP5E,DRSC09723,,,6419,2.91e5
Neurl4,DRSC10638,,,7799,3.09e5
Nepl20,DRSC14878,,,5955,3.41e5
Tl,DRSC16885,,,7754,4.84e5
CG2701,DRSC18590,,,8754,3.61e5
CG7546,DRSC08885,,,4479,3.49e5
CG7546,DRSC10871,,,5016,3.63e5
CG7546,DRSC22148,,,9758,7.77e5
EndoB,DRSC07345,,,6758,3.32e5
Rbbp5 + CG6434 (retired record),DRSC10635,,,9321,6.04e5
drn,DRSC15147,,,6488,4.63e5
Got1,DRSC07177,,,9115,3.95e5
CG18301,DRSC02662,,,7242,3.64e5
Ucp4A,DRSC19996,,,4792,3.62e5
ATP8A,DRSC05421,,,5659,3.15e5
ATP8A,DRSC06643,,,7859,4.87e5
ATP8A,DRSC06644,,,6095,3.46e5
gammaSnap1,DRSC04686,,,2.40e5,1.43e6
Gba1b,DRSC21531,,,8637,4.71e5
CG9184,DRSC08636,,,4471,3.29e5
CG9184,DRSC22184,,,8846,5.02e5
